Measured values published in patent publication US20070224301A1, “Compounds from an extract of Artemisia and methods for treating disorders” (priority 2006, published 2007).
At least one compound was matched to its structure with a doubt left. Some results were stated once for a whole list of compounds, not compound by compound.

Key:
PTP-1B = molecular target: T1, PTP-1B (Homo sapiens, UniProt P18031); assay: PTP-1B activity by PNPP hydrolysis after immunoprecipitation from treated skeletal muscle cells; assay type: cell-based; conditions: 20 μg/ml of media
T1 construct: Cell lysate was prepared and PTP-1B was immunoprecipitated with specific antibody; endogenous in cells; host or cells: primary skeletal muscle cell culture (subjects with type 2 diabetes)
T1 sequence (P18031 1-435): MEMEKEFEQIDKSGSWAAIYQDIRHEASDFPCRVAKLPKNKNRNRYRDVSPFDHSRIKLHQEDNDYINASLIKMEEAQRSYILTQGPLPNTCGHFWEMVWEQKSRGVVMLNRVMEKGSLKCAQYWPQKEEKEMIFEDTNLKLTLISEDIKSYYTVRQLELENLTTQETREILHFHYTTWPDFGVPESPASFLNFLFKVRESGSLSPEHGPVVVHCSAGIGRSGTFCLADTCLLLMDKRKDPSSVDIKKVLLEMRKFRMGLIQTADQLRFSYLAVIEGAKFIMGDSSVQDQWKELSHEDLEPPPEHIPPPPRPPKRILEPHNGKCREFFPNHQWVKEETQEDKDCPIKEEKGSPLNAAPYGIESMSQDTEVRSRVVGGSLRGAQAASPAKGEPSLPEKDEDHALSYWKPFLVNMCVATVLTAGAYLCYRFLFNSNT
Method: The activity of PTP-1B was assayed by hydrolysis of p-nitrophenol phosphate (PNPP). Skeletal muscle cells were incubated overnight (16 hours) with test substance (extract, fractions or pure compounds) at 20 μg/ml of media. Cell lysate was prepared and PTP-1B was immunoprecipitated with specific antibody (Upstate Biotechnology, Lake Placid, N.Y.). The immunoprecipitate was incubated in Phosphatase Reaction Buffer (20 mmol/L HEPES, pH 7.4, 150 mmol/L NaCl, 5 mM dithiothreitol, 1 mmol/L PNPP) for 20 minutes at 37° C. The reaction was stopped with 0.2 mol/L NaOH, and the absorbance at 410 nm was measured. The reactions were run in triplicate (Moeslein et al., The CLK family kinases, CLK1 and CLK2, phosphorylate and activate the tyrosine phosphatase, PTP-1B. J Biol Chem, 274:26697-26704 (1999)).

[1] = molecular target: T2, human recombinant ALR2 enzyme (Homo sapiens, UniProt P15121); assay: ALR2 enzyme assay (decrease in NADPH absorbance at 340 nm); assay type: biochemical; conditions: 3.75 μg/ml where stated
T2 construct: purchased Wako Chemicals USA Inc
Method: Human recombinant ALR2 enzyme was purchased from Wako Chemicals USA Inc. Enzyme activity was measured at each step of purification of the extract, by monitoring the decrease in NADPH absorbance at a wavelength of 340 nm (Nishimura et al., Purification and characterization of recombinant aldose reducatse expressed in baculovirus system. Biochim. Biophys. acta. pp. 1078-1171 (1991)), using a spectrophotometer. One hundred micro liters of the reaction mixture contained 100 mM sodium phosphate buffer (pH 6.2), 0.15 mM NADPH, 10 mM DL-Glyceraldehyde and 1 mU of human recombinant ALR2 enzyme. The samples were prepared in 10% DMSO and the final concentration of the samples or the positive control quercitrin was 3.75 μg/ml. The reaction was initiated by adding the enzyme and the change in NADPH absorbance was monitored over seven minutes.

PEPCK gene expression = assay: PEPCK gene inhibition assay (Dex/cAMP-induced, qPCR) in H4IIE hepatoma cells; assay type: cell-based, rat
Method: H4IIE hepatoma cells (ATCC CRL-1600) were plated in 24-well tissue culture plates (Greiner Bio One) and were grown to confluence in Dulbecco's modified Eagle's medium (DMEM) containing 2.5% (v/v) newborn calf serum and 2.5% (v/v) fetal calf serum. Cells were treated for 8 hours with 500 nM dexamethasone and 0.1 mM cAMP (Dex/cAMP, both Sigma) to induce PEPCK gene expression and different concentrations or volumes of each of the tested compounds, plant extract or […] of Insulin. The fractions were tested at 50 μg/ml of media and the compounds were tested at the doses of 2.5 μg/ml, 5 μg/ml and 10 μg/ml and 25 μg/ml. Three wells were allocated for each treatment as well as for a negative control (untreated cells).
Total RNA was extracted from H4IIE rat hepatoma cells using Trizol reagent (Invitrogen Inc.) following the manufacturer instructions. RNA was quantified spectro-photo-metrically by absorption measurements at 260 nm and 280 nm using the NanoDrop system (NanoDrop Technologies Inc. Delware, USA). Quality of RNA was assessed by separation in gel-electrophoresis. […]
The synthesized cDNAs were diluted 4-fold. […] The other components of the PCR reactions were 0.5 μl of 6 μM gene specific primers (synthesized by IDT Inc. USA), 12.5 μl of Brilliant SYBR green PCR master mix (2×) (Stratagene, La Jolla, Calif.) containing green jump-start Taq ready mix. […]

SMILES | PTP-1B inhibitory activity (in words) (PTP-1B) | ALR2 inhibitory activity (in words, compared with quercitrin) [1] | repression of dexamethazone/cAMP-induced PEPCK gene expression (PEPCK gene expression; 25 μg/ml) | PEPCK inhibitory activity (in words) (PEPCK gene expression; fractions at 50 μg/ml)
COc1ccc(C(=O)CCc2ccc(O)cc2)c(O)c1 [Compound 5, 2′,4-dihydroxy-4′-methoxydihydrochalcone] | inhibitor of PTP-1B | – | – | –
COc1ccc(CCC(=O)c2ccc(O)cc2O)cc1 [Compound 4, 2′,4′-dihydroxy-4-methoxydihydrochalcone] | inhibits the activity of ALR2 and PTP-1B | inhibits the activity of ALR2 and PTP-1B | greater than 50% | decrease the gene expression of PEPCK
